Measurements published in the supplement of paper PMC6411743.
± gives the standard deviation of the averaged measurements. This is a selection; strong and weak results do not stand in their true shares.

The chains behind the UniProt entries cited, without tags or fusion partners. Where a name states a change or a piece, a line headed by the entry shows the natural chain unless it says otherwise.
UniProt Q9NZJ0: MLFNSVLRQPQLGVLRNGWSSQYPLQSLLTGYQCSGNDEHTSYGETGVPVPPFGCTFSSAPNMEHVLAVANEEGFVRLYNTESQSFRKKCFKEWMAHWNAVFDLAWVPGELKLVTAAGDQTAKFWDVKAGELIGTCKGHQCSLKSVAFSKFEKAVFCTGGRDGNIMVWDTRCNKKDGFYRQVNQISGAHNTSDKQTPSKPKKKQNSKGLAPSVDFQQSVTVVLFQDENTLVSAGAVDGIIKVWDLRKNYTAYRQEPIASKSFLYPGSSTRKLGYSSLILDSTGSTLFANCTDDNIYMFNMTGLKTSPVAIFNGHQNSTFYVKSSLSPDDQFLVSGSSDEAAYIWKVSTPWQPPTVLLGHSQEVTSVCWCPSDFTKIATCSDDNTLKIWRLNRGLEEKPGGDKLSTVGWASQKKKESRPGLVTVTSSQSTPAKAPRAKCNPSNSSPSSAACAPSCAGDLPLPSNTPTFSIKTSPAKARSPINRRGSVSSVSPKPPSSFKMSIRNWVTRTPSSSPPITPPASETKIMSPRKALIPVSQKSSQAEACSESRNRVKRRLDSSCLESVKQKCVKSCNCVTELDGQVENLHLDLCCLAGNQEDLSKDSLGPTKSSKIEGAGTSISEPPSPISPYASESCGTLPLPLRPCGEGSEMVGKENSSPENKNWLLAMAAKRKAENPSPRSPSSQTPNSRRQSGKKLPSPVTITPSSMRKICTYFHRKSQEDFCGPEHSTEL
UniProt Q9H4P4: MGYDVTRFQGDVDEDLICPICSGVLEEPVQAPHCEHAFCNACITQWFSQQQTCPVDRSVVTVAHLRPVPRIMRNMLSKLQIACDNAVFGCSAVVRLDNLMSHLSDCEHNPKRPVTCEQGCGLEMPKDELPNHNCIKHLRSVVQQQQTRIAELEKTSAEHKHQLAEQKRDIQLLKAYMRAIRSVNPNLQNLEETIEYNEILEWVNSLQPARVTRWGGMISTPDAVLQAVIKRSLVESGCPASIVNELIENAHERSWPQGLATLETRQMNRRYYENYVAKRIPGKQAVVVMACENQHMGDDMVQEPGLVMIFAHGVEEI
UniProt Q9ULK6: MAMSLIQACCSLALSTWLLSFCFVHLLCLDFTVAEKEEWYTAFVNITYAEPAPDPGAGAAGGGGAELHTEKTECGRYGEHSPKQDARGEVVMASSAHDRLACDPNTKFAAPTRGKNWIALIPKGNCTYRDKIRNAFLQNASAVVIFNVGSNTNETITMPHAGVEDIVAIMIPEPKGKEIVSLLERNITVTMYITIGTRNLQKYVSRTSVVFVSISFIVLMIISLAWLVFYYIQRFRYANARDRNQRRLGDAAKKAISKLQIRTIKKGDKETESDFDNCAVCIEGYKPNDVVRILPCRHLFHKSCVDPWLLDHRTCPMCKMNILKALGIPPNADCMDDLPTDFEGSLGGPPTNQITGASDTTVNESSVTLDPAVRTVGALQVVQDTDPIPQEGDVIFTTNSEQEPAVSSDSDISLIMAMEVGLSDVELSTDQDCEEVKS
UniProt Q9Y4P3: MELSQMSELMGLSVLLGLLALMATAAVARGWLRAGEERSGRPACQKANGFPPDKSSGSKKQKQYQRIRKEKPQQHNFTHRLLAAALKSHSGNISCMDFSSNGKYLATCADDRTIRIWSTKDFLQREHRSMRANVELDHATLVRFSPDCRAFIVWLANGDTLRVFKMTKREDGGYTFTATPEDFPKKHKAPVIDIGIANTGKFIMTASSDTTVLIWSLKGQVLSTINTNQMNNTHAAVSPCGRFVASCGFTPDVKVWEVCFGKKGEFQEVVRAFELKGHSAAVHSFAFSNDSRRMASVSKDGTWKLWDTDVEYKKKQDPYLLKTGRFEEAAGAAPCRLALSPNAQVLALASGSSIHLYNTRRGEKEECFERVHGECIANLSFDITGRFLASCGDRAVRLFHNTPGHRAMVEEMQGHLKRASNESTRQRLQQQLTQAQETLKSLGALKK
UniProt P62820, whole entry: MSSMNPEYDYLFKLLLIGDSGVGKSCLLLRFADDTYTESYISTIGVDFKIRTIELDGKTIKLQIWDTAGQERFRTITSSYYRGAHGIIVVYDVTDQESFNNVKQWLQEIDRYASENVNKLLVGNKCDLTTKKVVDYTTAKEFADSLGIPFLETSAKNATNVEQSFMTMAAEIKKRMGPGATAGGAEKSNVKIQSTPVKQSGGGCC
UniProt P61916: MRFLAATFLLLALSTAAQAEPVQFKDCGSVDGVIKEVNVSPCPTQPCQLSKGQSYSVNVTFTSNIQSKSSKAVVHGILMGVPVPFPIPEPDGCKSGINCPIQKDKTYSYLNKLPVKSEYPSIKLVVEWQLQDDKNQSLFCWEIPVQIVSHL
UniProt O00559: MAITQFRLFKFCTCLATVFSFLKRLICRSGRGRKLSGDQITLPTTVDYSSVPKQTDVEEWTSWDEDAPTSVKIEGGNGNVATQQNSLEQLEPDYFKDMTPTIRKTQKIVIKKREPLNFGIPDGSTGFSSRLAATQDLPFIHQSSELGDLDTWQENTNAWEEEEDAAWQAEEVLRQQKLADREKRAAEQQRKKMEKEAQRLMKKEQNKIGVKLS
UniProt Q8NBI5: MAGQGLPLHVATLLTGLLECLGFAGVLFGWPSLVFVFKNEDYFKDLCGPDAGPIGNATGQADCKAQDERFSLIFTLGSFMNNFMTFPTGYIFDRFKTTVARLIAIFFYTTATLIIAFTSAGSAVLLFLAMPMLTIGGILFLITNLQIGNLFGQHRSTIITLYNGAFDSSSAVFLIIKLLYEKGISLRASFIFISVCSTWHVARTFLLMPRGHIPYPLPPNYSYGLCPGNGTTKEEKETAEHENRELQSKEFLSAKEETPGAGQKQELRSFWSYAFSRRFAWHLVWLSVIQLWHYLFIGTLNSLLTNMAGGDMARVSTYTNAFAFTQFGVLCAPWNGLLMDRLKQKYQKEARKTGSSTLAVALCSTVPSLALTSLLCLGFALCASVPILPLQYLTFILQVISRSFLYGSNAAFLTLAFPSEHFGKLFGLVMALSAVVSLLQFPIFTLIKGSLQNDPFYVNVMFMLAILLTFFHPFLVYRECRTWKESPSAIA
UniProt Q8NCB2: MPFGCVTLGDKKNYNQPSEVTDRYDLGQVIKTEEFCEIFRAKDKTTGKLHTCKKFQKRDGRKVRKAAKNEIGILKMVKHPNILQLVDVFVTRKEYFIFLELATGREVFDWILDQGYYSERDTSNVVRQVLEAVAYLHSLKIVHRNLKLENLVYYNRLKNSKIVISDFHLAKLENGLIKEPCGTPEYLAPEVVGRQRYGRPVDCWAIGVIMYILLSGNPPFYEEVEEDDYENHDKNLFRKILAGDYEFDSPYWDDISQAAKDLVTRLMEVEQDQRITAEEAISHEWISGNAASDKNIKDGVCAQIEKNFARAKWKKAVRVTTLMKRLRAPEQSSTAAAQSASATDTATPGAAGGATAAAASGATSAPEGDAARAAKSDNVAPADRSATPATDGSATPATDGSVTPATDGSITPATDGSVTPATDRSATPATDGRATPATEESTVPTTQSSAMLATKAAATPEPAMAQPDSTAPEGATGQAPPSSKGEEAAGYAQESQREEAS
UniProt P11117: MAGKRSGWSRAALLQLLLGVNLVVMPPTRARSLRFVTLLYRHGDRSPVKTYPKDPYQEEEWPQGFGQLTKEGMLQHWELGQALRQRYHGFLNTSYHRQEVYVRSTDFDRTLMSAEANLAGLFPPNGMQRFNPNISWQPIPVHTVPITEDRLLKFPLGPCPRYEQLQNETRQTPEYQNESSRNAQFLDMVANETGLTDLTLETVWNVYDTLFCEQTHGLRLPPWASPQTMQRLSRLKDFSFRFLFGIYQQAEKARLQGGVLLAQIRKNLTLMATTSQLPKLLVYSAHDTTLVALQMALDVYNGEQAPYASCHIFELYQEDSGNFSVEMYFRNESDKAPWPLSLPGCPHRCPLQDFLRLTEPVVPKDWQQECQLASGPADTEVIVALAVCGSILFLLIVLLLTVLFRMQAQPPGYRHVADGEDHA
UniProt Q9H3F6: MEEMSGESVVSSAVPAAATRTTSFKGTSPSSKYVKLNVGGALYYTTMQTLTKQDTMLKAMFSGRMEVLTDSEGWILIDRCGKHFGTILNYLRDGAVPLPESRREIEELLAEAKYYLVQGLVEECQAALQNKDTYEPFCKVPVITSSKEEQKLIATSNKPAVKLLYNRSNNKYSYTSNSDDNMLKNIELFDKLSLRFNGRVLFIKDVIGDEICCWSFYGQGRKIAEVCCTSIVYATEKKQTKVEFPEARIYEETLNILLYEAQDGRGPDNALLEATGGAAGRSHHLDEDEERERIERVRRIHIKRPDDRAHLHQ
UniProt P08962, whole entry: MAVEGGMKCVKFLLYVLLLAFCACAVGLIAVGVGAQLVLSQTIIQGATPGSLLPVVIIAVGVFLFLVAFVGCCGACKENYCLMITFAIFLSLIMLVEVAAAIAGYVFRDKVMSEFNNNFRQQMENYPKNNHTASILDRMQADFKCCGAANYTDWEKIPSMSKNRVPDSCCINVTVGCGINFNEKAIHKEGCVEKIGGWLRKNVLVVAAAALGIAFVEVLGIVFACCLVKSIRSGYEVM
UniProt P55209: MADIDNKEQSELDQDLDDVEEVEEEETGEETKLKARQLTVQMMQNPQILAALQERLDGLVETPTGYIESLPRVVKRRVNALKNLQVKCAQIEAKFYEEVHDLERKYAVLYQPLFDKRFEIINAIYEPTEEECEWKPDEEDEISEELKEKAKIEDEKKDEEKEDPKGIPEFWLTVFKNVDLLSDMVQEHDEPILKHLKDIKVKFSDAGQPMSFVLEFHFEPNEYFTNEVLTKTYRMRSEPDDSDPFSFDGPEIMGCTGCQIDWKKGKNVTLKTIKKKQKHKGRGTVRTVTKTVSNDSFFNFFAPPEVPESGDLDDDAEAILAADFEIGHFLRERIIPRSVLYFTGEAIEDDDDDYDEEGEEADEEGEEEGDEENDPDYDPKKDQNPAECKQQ
UniProt O00462: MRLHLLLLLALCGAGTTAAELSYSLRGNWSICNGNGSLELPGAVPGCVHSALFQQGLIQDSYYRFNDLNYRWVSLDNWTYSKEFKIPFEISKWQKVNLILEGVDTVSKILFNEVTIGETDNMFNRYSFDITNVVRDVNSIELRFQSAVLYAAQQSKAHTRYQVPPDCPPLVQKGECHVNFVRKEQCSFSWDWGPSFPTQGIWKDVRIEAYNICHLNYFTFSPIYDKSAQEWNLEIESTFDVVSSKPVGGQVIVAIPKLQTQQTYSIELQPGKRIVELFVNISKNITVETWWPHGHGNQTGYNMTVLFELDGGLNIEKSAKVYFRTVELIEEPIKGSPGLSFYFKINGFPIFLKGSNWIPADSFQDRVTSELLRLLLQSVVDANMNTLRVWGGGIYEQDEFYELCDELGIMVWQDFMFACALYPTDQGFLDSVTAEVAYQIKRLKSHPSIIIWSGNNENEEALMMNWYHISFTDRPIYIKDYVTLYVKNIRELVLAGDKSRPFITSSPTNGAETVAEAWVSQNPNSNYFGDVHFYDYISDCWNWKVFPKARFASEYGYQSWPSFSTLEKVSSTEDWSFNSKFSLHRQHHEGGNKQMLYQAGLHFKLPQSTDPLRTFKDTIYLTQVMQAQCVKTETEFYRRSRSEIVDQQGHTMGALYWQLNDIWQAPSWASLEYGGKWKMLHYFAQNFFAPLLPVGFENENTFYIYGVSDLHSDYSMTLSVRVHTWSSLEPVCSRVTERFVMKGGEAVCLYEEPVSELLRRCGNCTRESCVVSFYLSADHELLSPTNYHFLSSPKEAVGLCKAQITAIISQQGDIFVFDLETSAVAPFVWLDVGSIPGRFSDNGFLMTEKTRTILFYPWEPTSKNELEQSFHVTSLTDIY
UniProt Q8N4H5: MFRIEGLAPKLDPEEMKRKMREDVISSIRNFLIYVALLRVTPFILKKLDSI
UniProt Q9Y6E2: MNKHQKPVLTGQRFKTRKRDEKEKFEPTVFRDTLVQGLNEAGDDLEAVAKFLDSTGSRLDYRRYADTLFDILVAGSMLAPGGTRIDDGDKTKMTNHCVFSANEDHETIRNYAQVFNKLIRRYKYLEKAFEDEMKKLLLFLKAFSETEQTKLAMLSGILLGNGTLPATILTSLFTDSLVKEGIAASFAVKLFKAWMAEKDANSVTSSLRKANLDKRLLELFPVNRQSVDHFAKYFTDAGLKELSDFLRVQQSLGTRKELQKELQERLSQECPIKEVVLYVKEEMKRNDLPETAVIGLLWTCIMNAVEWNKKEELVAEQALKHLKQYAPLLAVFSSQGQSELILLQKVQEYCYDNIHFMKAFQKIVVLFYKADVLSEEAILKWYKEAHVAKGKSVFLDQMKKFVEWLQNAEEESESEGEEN
UniProt P27695, whole entry: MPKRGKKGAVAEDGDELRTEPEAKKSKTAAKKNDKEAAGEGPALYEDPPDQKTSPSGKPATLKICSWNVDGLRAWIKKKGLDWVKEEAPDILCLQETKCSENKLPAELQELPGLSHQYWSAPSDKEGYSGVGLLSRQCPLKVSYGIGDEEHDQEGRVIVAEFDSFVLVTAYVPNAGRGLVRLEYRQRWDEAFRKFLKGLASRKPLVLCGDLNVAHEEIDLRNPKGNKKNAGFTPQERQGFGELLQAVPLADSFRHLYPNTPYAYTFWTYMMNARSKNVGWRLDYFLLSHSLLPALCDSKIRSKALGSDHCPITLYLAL

Compound: Nc1ncnc2c1ncn2[C@@H]1O[C@H](COP(=O)(O)OP(=O)(O)OP(=O)(O)O)[C@@H](O)[C@H]1O [adenosine triphosphate]
Experiment: NP40-soluble protein abundance relative to vehicle (solubility fold change) (ratio); higher = more soluble protein in presence of ATP
In short: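 Data come from three independent experiments in which Dounce-homogenised Jurkat crude lysate was treated at eight concentrations from 0.1 to 10 mM. Treatment ran 10 min at room temperature and then 3 min at 37 °C, after which 0.8% NP40 and benzonase were added for 60 min at 4 °C before ultracentrifugation. The supernatant underwent TMT labelling and LC-MS/MS, and vsn-normalised intensities were expressed as fold change against the detergent-processed vehicle in each replicate.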

Row | Target | NP40-soluble protein abundance (concentration: 1mM) | NP40-soluble protein abundance (concentration: 2mM) | NP40-soluble protein abundance (concentration: 4mM) | NP40-soluble protein abundance (concentration: 6mM) | NP40-soluble protein abundance (concentration: 8mM) | NP40-soluble protein abundance (concentration: 10mM)
1 | F5GZ90 and related entries (UniProt Q9NZJ0) | 0.941 ± 0.0064 | 0.937 ± 0.017 | 0.894 ± 0.028 | 0.877 ± 0.037 | 0.863 ± 0.036 | 0.868 ± 0.036
2 | E7EQL8 and related entries (UniProt Q96RT7) | 1 ± 0.15 | 1 ± 0.19 | 0.992 ± 0.17 | 1.1 ± 0.26 | 1.01 ± 0.16 | 1.08 ± 0.17
3 | F8VSB6 and related entries (UniProt Q9H4P4) | 1.02 ± 0.048 | 1 ± 0.062 | 0.967 ± 0.11 | 1.11 ± 0.085 | 0.994 ± 0.04 | 1.081 ± 0.0083
4 | D6RIE5 and related entries (UniProt Q9ULK6) | 0.906 ± 0.1 | 0.941 ± 0.075 | 0.973 ± 0.19 | 0.932 ± 0.12 | 0.892 ± 0.069 | 0.841 ± 0.081
5 | E9PC69 and related entries (UniProt Q7KZI7) | 1.2 ± 0.099 | 1.24 ± 0.13 | 1.24 ± 0.12 | 1.19 ± 0.11 | 1.24 ± 0.11 | 1.21 ± 0.11
6 | E9PF19 and related entries (UniProt Q9Y4P3) | 1.15 ± 0.045 | 1.23 ± 0.016 | 1.28 ± 0.028 | 1.3 ± 0.092 | 1.36 ± 0.026 | 1.41 ± 0.039
7 | E7END7 and related entries (UniProt P62820) | 0.99 ± 0.058 | 0.988 ± 0.02 | 0.956 ± 0.032 | 1 ± 0.032 | 0.932 ± 0.022 | 0.953 ± 0.033
8 | E7EMS2 and related entries (UniProt P61916) | 0.921 ± 0.075 | 0.947 ± 0.011 | 0.893 ± 0.03 | 0.977 ± 0.029 | 0.888 ± 0.012 | 0.872 ± 0.06
9 | E9PN10 and related entries (UniProt O00559) | 0.96 ± 0.11 | 0.994 ± 0.094 | 0.974 ± 0.07 | 0.956 ± 0.065 | 1 ± 0.064 | 0.93 ± 0.16
10 | E9PS74 and related entries (UniProt Q8NBI5) | 0.974 ± 0.043 | 0.999 ± 0.046 | 0.959 ± 0.046 | 0.969 ± 0.036 | 0.978 ± 0.076 | 1.01 ± 0.044
11 | E7ETR1 and related entries (UniProt Q8NCB2) | 0.975 ± 0.089 | 1.1 ± 0.1 | 1.17 ± 0.034 | 1.21 ± 0.089 | 1.03 ± 0.034 | 1.08 ± 0.024
12 | E9PIK4 and related entries (UniProt O14683) | 0.966 ± 0.25 | 0.944 ± 0.19 | 0.977 ± 0.23 | 0.918 ± 0.22 | 0.942 ± 0.18 | 0.92 ± 0.16
13 | E9PQY3 and related entries (UniProt P11117) | 0.975 ± 0.03 | 1.03 ± 0.014 | 0.996 ± 0.027 | 1.04 ± 0.046 | 0.964 ± 0.066 | 0.925 ± 0.077
14 | F8W689 and related entries (UniProt P48382) | 0.968 ± 0.047 | 0.986 ± 0.037 | 0.985 ± 0.055 | 0.995 ± 0.052 | 0.965 ± 0.028 | 0.952 ± 0.022
15 | E7ET39 and related entries (UniProt Q8NDZ4) | 1.08 ± 0.03 | 1.05 ± 0.034 | 1.11 ± 0.12 | 1.15 ± 0.029 | 1.22 ± 0.054 | 1.22 ± 0.12
16 | G3V5N8 and related entries (UniProt Q9HBF4) | 0.996 ± 0.05 | 0.986 ± 0.057 | 0.979 ± 0.07 | 0.946 ± 0.11 | 0.972 ± 0.025 | 0.949 ± 0.031
17 | F5GWA4 and related entries (UniProt Q9H3F6) | 1.14 ± 0.087 | 1.1 ± 0.1 | 1.08 ± 0.1 | 1.06 ± 0.16 | 1.11 ± 0.048 | 1.03 ± 0.12
18 | D6RIF6 and related entries (UniProt Q9P270) | 0.956 ± 0.052 | 1.012 ± 0.007 | 1.12 ± 0.12 | 1.13 ± 0.051 | 1.03 ± 0.038 | 1.11 ± 0.089
19 | E9PBS1 and related entries (UniProt P22234) | 0.963 ± 0.036 | 0.92 ± 0.036 | 0.884 ± 0.052 | 0.936 ± 0.033 | 0.954 ± 0.058 | 0.932 ± 0.044
20 | F6SS63 and related entries (UniProt Q8N5C8) | 0.94 ± 0.076 | 1.01 ± 0.032 | 1.04 ± 0.082 | 1.13 ± 0.082 | 1.03 ± 0.12 | 1.04 ± 0.085
21 | F8VV56 and related entries (UniProt P08962) | 0.886 ± 0.036 | 0.895 ± 0.013 | 0.928 ± 0.015 | 0.939 ± 0.029 | 0.93 ± 0.028 | 0.824 ± 0.078
22 | F8W543 and related entries (UniProt P55209) | 0.876 ± 0.18 | 0.907 ± 0.083 | 0.916 ± 0.047 | 0.923 ± 0.095 | 0.931 ± 0.019 | 0.936 ± 0.017
23 | E7EN86 and related entries (UniProt P52747) | 0.981 ± 0.032 | 0.996 ± 0.038 | 0.96 ± 0.042 | 0.984 ± 0.032 | 0.944 ± 0.059 | 0.981 ± 0.016
24 | E9PFW2 and related entries (UniProt O00462) | 1.02 ± 0.1 | 1.05 ± 0.12 | 1.04 ± 0.095 | 0.911 ± 0.1 | 0.991 ± 0.1 | 0.975 ± 0.063
25 | E9PQ57 and related entries (UniProt P78406) | 1.03 ± 0.05 | 1.05 ± 0.018 | 1.05 ± 0.02 | 1.1 ± 0.056 | 1.14 ± 0.041 | 1.17 ± 0.013
26 | E5RHW4 and related entries (UniProt O94905) | 1.02 ± 0.083 | 0.943 ± 0.073 | 0.913 ± 0.086 | 0.997 ± 0.26 | 0.927 ± 0.15 | 0.941 ± 0.11
27 | F8W8Z9 and related entries (UniProt Q8N4H5) | 0.865 ± 0.061 | 0.806 ± 0.066 | 0.831 ± 0.1 | 0.755 ± 0.086 | 0.778 ± 0.062 | 0.756 ± 0.081
28 | F2Z388 and related entries (UniProt P42766) | 0.973 ± 0.051 | 0.991 ± 0.035 | 1.02 ± 0.039 | 0.966 ± 0.068 | 0.644 ± 0.3 | 1.067 ± 0.0039
29 | E7ETZ4 and related entries (UniProt Q9Y6E2) | 0.936 ± 0.0097 | 0.9341 ± 0.0059 | 0.8943 ± 0.0045 | 0.923 ± 0.028 | 0.905 ± 0.034 | 0.879 ± 0.022
30 | G3V3M6 and related entries (UniProt P27695) | 0.957 ± 0.016 | 0.953 ± 0.038 | 0.917 ± 0.063 | 0.959 ± 0.089 | 0.963 ± 0.058 | 0.96 ± 0.075

Record cards (already shown).
E9PN10 and related entries (UniProt O00559) in the list: NP40-soluble protein abundance (concentration: 1mM): 0.96 ± 0.11; NP40-soluble protein abundance (concentration: 2mM): 0.994 ± 0.094; NP40-soluble protein abundance (concentration: 4mM): 0.974 ± 0.07; NP40-soluble protein abundance (concentration: 6mM): 0.956 ± 0.065; NP40-soluble protein abundance (concentration: 8mM): 1 ± 0.064; NP40-soluble protein abundance (concentration: 10mM): 0.93 ± 0.16
F8W8Z9 and related entries (UniProt Q8N4H5) in the list: NP40-soluble protein abundance (concentration: 1mM): 0.865 ± 0.061; NP40-soluble protein abundance (concentration: 2mM): 0.806 ± 0.066; NP40-soluble protein abundance (concentration: 4mM): 0.831 ± 0.1; NP40-soluble protein abundance (concentration: 6mM): 0.755 ± 0.086; NP40-soluble protein abundance (concentration: 8mM): 0.778 ± 0.062; NP40-soluble protein abundance (concentration: 10mM): 0.756 ± 0.081
